The match of structure and compound is tentative.
Assays:
androgen receptor (AR) [1] = target: androgen receptor (AR) (Homo sapiens, UniProt P10275, T878A); test: AR degradation in LNCAP cells (Western blot); conditions: read-out: LNCAP (DC50), 24 hours after administration
Description: (§1) LNCAP, VCAP and 22Rv1 cells were plated in 24-well plates at 1.5×10E5 cells/well in the RPMI growth medium containing 10% FBS and 1% Penicillin Streptomycin, and then incubated at 37° C. overnight. The following day, the test compound was administered to the cells by using 1000× compound stock solution prepared in DMSO at various concentrations. After administration of the compound, the cells were then incubated at 37° C. for 24 hours. Upon completion, the cells were washed with PBS and protein was collected in Laemmli sample buffer (1×; VWR International). Proteins in cell lysate were separated by SDS-PAGE and transferred to Odyssey nitrocellulose membranes (Licor) with iblot® dry blotting transfer system (ThermoFisher). Nonspecific binding was blocked by incubating membranes with Intercept Blocking Buffer (Licor) for 1 hour at room temperature with gentle shaking. The membranes were then incubated overnight at 4° C. with Primary antibodies rabbit anti-AR (1:1,000, Cell Signaling, 5153) and mouse anti-GAPDH (1:5,000, Santa Cruz Biotechnology, sc-47724) diluted in Intercept Blocking Buffer containing 0.1% Tween 20. After washing 3 times with TBS-T, the membranes were incubated with IRDye® […] goat anti-mouse IgG (1:20,000, Licor) or IRDye® […] goat anti-rabbit IgG (1:20,000, Licor) for 1 hour. […] The bands were quantified using Image Studio™ Software (Licor). […]

Chains of the proteins cited; added tags and fusions are not shown.
UniProt P10275, whole entry: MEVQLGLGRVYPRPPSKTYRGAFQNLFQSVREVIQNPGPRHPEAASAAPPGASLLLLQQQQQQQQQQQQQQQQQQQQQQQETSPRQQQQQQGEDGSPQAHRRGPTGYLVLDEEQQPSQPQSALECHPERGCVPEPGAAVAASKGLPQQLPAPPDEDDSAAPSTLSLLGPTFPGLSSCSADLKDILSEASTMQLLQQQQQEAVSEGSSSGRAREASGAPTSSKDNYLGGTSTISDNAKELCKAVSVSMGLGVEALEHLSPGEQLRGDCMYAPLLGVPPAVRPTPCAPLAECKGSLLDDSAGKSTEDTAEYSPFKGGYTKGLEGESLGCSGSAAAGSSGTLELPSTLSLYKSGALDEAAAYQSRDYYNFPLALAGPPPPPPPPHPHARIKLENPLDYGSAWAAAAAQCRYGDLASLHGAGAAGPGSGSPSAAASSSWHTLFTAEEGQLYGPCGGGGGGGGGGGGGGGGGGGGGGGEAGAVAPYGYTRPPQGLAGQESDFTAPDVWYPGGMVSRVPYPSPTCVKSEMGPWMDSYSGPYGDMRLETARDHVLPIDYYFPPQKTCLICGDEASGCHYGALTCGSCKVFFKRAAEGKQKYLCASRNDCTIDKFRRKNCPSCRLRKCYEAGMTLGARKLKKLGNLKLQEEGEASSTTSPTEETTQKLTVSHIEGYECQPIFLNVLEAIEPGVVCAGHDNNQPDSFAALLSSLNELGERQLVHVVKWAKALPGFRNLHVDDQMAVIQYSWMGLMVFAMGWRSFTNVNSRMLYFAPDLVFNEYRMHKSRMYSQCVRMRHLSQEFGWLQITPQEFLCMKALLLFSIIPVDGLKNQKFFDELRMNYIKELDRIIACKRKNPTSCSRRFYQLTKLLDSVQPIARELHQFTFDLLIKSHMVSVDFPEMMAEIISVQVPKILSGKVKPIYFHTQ
UniProt P10275, whole entry T878A: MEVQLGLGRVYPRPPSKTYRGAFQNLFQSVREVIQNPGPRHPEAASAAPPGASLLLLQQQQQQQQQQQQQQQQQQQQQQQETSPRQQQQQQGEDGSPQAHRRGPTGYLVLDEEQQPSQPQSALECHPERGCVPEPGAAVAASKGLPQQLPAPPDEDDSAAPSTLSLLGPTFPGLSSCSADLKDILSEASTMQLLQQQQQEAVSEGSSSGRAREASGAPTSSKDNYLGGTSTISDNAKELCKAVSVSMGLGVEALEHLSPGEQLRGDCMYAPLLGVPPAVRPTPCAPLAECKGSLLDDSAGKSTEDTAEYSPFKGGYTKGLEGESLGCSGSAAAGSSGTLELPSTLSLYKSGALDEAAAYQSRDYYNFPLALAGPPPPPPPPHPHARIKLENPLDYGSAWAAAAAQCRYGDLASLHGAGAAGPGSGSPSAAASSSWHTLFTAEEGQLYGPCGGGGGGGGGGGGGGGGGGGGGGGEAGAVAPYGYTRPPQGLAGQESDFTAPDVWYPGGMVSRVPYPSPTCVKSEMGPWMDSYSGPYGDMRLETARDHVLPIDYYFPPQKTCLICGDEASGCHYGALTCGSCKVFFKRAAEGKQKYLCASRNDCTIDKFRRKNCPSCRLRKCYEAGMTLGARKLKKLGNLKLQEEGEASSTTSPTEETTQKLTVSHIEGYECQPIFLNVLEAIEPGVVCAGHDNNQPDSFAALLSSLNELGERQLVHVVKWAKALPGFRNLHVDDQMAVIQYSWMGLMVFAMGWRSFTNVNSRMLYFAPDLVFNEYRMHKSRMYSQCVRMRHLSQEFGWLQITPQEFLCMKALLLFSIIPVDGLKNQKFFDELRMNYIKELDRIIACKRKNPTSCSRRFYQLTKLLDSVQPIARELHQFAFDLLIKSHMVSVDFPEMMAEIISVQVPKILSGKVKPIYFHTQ

androgen receptor (AR) [2] = target: androgen receptor (AR) (Homo sapiens, UniProt P10275); test: AR degradation in VCAP cells (Western blot); conditions: read-out: VCAP (DC50), 24 hours after administration
Description: as §1

androgen receptor (AR) [3] = test: AR degradation in 22Rv1 cells (Western blot); conditions: read-out: 22RV1 (DC50), 24 hours after administration
Description: as §1

SMILES	DC50 (androgen receptor (AR) [1]) [nM]	DC50 (androgen receptor (AR) [2]) [nM]	DC50 (androgen receptor (AR) [3]) [nM]
COc1cc(N2C[C@@H](C)N(C(=O)Nc3ccc(N4CCC(CN5CCN(c6ccc7c(c6)C(=O)N(C6CCC(=O)NC6=O)C7=O)CC5)CC4)c(F)c3)C[C@@H]2C)ccc1C#N (some centres unmarked)	< 10	< 10	< 10
COc1cc(N2C[C@@H](C)N(C(=O)Nc3cnc(N4CCC(CCN5CCN(c6ccc7c(c6)C(=O)N(C6CCC(=O)NC6=O)C7=O)CC5)CC4)nc3)C[C@@H]2C)ccc1C#N (some centres unmarked)	< 10	< 10	–
